Results on 40 sequences are retold here after article PMC7862700.

The list shows a part of the results. Construct or isoform of the protein are uncertain.

This assay has as its target T1, ELF2 (UniProt Q15723).
T1 sequence: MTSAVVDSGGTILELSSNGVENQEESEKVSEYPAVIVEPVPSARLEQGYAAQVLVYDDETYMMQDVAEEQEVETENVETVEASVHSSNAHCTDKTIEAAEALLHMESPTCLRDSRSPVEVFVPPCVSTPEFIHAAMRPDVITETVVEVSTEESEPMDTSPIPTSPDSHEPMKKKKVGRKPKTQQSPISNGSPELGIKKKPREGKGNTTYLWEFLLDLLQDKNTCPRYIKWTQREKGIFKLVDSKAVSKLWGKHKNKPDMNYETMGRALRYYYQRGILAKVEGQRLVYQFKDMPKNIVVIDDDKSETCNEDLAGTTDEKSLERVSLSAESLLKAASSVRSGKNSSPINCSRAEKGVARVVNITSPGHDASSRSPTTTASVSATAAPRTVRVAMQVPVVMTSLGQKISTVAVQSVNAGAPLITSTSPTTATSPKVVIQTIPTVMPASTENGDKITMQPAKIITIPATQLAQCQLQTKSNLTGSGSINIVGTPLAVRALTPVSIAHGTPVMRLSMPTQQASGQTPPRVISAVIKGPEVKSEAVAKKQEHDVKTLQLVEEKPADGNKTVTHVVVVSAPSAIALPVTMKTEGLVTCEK
Put plainly: DAPPL (digital affinity profiling via proximity ligation, sequencing). The settings on record: 10 mM Tris-HCl pH 7.5, 50 mM NaCl, 1 mM DTT, 4% glycerol, room temperature, 30 min; GST-TFs on glutathione beads, 16-mer random dsDNA library, 0.1% …; high values mean tight binding; double strand, one strand shown; scale: fold enrichment (6-mer frequency, TF over GST control).
In turn, CGCTCG returned a binding signal of 0.993.

As for CCCTTA, the binding signal was 1.24.

The sequence CCAGAT yielded a binding signal of 0.849.

The sequence AGTTAA registered a binding signal of 1.06.

As to CCAATT, the binding signal stood at 1.25.

The sequence TGTTAC registered a binding signal of 1.41.

With GGAACT, the binding signal is 2.35.

TTCGGG returned a binding signal of 0.876.

In turn, CAGGAA gave a binding signal of 2.39.

AACCCT registered a binding signal of 1.23.

In the case of TCGATA, the binding signal is 1.04.

As for GGGATT, the binding signal is 0.875.

Sequence CTGAAA displayed a binding signal of 1.11.

CGAAGG: the binding signal is 0.92.

CTGAAG returned a binding signal of 1.06.

For CCGTTC, the binding signal came to 1.37.

TTAATC showed a binding signal of 1.2.

Regarding GGTACT, the binding signal came out at 1.36.

With TCATCA, the binding signal stood at 1.08.

CAAGCA displayed a binding signal of 1.17.

TGAATC yielded a binding signal of 0.962.

As for ATATCA, the binding signal was 1.15.

CTGGTA had a binding signal of 1.32.

For the sequence CTCAAG, the binding signal was 1.12.

Sequence TTCGAG had a binding signal of 1.18.

In turn, GTAGAA yielded a binding signal of 0.915.

With CGAGCA, the binding signal came to 1.03.

As to TCAATC, the binding signal came out at 0.976.

For the sequence CCTAAT, the binding signal worked out at 1.26.

In the case of TTGAAA, the binding signal was determined as 1.1.

In turn, TTCATG gave a binding signal of 1.22.

GACTTT returned a binding signal of 1.06.

GTTCAA displayed a binding signal of 1.11.

Sequence TTTGAT registered a binding signal of 1.19.

In turn, TATAGA returned a binding signal of 1.09.

Turning to AGTGCT, the binding signal came out at 1.39.

Sequence ACGCTA registered a binding signal of 1.1.

For the sequence CAGAAC, the binding signal amounted to 0.887.

Regarding ATTACT, the binding signal is 1.27.

In turn, ACGGAT registered a binding signal of 1.32.
